Here are results for 2 substances from PMC12343803.

By UniProt entry, the sequences of proteins in these tests, tags left out.
UniProt P10415: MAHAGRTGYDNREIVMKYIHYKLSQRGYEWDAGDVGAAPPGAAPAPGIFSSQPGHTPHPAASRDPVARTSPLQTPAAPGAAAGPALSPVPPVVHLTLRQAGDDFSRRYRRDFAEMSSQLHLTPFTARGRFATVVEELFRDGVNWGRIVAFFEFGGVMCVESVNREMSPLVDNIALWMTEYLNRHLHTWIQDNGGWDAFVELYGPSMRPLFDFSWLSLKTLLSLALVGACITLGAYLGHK
UniProt Q07817: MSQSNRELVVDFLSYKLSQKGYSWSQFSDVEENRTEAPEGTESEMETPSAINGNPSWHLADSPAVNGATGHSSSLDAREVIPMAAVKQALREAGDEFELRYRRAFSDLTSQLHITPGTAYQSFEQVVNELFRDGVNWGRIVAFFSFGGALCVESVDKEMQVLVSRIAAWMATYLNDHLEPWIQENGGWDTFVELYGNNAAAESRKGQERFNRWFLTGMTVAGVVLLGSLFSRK
UniProt P19474: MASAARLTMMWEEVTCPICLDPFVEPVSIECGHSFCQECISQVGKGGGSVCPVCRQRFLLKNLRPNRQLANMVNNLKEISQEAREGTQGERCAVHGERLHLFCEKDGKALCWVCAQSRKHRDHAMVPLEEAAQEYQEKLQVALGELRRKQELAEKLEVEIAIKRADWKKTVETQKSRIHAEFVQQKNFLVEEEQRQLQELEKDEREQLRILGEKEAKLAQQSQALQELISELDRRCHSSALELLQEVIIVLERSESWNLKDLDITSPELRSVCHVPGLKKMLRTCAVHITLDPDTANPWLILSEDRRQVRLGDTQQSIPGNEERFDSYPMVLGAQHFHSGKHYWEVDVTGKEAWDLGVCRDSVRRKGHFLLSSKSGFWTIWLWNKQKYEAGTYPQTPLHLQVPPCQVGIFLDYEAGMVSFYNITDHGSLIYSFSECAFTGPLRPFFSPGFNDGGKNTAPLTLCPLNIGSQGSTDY

No constants are given. Whether binding was seen depends on the method and setting. In cells and extracts the contact can be indirect. Some results given as binding are weak or reduced against the parent protein; the word gives no strength.

One assay addresses BCL2 (UniProt P10415). As to the kind of experiment: co-IP; cells treated with N-8 (Supplementary Fig. 5F); cells, constructs and bait not given.
In a further assay the target is BCL-XL (UniProt Q07817). The assay is described as above.
Assay [1] addresses BCL-XL (tagged, in MIGR1 vector) (UniProt Q07817). As to the kind of experiment: co-IP; cells co-transfected with or without TRIM21 and BCL-XL or MCL1; lysed in Co-IP lysis buffer, incubated overnight at 4 °C with bead-labeled antibodies or Protein A/G plus antibodies, washed five times, western blot.

Take TRIM21 (from UniProt P19474 1-475): the binding result with BCL2 and with BCL-XL was “binds” throughout.

For the substance TRIM21-Flag (from UniProt P19474 1-475), the binding result in assay [1] is reported as “binds”.
